The record followed here is the supplement of paper PMC6411743.

By UniProt entry, the sequences of proteins in these tests, tags left out. Where a name states a change or a piece, a line headed by the entry shows the natural chain unless it says otherwise.
UniProt Q16795, whole entry: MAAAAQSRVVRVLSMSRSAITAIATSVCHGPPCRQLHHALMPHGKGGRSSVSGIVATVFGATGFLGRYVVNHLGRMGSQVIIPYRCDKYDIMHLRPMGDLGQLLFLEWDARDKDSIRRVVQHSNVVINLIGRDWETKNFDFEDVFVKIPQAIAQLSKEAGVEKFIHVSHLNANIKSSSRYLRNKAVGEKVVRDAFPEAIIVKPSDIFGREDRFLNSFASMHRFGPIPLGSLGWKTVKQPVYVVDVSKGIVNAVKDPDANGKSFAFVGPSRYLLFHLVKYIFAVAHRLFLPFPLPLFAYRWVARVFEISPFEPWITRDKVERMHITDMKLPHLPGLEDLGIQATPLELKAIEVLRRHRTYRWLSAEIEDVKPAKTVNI
UniProt Q29RF7: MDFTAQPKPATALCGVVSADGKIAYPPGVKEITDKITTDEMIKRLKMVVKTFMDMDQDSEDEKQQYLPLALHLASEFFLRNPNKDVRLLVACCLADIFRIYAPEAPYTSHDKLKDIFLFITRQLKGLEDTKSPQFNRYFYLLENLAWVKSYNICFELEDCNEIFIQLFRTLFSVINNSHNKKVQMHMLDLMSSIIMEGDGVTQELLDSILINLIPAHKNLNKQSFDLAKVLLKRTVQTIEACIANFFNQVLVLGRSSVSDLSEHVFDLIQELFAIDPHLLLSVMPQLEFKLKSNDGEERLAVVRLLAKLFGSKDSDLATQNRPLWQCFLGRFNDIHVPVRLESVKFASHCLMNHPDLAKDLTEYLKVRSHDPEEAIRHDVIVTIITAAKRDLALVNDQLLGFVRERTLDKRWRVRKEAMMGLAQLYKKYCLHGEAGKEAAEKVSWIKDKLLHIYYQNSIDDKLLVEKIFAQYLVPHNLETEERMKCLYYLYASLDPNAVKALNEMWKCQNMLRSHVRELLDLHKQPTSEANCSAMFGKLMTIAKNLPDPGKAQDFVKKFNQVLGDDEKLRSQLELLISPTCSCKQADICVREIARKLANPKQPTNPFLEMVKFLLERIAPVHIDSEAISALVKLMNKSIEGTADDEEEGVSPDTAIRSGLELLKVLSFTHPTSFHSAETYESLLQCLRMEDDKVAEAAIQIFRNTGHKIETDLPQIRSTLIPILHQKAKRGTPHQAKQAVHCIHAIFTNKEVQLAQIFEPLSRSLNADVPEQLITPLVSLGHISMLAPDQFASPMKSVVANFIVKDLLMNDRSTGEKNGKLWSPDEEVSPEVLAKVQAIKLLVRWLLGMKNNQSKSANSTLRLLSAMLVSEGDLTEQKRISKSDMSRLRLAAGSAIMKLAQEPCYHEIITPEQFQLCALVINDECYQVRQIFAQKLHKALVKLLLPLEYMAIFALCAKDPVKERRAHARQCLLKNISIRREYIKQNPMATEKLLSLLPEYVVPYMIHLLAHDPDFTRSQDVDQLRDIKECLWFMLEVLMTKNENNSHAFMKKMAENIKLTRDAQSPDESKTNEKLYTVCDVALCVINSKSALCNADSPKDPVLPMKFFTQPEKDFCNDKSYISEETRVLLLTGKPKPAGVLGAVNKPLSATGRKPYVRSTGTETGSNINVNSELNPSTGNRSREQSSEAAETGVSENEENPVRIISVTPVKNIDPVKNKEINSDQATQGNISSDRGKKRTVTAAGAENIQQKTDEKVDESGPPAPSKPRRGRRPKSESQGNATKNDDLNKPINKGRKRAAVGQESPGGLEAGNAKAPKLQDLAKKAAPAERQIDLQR
UniProt Q2PPJ7: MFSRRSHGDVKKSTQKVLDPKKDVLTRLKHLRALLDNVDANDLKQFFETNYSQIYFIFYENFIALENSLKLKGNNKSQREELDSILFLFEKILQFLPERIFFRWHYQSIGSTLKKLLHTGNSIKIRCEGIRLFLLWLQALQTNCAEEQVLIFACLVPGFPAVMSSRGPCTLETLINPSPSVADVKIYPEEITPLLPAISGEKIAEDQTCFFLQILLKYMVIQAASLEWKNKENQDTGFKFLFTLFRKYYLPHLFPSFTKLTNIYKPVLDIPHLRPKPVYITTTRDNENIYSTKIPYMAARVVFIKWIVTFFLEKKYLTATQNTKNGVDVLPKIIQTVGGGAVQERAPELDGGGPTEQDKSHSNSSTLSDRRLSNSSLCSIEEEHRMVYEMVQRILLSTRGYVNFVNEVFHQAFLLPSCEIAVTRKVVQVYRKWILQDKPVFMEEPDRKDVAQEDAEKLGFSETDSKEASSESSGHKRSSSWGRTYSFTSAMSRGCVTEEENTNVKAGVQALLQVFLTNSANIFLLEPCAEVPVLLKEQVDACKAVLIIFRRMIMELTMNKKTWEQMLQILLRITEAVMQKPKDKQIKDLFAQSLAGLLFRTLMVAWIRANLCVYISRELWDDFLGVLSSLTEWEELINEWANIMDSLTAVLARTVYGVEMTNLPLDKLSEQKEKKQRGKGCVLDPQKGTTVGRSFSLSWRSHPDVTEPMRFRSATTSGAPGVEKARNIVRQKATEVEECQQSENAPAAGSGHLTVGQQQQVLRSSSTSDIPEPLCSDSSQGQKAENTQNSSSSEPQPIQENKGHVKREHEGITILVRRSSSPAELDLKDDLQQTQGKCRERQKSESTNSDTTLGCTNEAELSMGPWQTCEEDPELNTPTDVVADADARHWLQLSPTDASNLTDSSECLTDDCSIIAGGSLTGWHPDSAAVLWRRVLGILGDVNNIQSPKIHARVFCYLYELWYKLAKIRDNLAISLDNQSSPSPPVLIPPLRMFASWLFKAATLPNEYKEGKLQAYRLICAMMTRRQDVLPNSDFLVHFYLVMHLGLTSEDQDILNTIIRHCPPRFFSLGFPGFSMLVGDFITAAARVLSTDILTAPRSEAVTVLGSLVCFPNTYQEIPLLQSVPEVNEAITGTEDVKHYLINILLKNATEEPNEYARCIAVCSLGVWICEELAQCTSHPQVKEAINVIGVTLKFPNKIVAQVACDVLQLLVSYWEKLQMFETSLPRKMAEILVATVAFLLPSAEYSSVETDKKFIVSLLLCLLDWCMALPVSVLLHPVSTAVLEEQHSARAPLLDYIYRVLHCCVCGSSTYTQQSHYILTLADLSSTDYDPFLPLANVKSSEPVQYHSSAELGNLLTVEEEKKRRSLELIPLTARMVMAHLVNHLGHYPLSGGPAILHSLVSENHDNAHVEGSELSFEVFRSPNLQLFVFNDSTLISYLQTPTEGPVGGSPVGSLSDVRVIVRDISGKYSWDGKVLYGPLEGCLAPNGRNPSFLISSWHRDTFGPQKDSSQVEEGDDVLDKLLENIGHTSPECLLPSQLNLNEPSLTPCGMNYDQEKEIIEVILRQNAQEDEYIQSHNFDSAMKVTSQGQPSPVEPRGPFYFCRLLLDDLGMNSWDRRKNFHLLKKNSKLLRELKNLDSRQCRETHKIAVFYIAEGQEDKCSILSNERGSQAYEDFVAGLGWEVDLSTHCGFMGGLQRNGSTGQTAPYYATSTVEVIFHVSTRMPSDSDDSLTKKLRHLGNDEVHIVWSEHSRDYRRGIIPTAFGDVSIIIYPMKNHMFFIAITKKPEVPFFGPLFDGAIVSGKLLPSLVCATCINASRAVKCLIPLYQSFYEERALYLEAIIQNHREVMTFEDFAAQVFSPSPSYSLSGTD
UniProt Q5T5C0: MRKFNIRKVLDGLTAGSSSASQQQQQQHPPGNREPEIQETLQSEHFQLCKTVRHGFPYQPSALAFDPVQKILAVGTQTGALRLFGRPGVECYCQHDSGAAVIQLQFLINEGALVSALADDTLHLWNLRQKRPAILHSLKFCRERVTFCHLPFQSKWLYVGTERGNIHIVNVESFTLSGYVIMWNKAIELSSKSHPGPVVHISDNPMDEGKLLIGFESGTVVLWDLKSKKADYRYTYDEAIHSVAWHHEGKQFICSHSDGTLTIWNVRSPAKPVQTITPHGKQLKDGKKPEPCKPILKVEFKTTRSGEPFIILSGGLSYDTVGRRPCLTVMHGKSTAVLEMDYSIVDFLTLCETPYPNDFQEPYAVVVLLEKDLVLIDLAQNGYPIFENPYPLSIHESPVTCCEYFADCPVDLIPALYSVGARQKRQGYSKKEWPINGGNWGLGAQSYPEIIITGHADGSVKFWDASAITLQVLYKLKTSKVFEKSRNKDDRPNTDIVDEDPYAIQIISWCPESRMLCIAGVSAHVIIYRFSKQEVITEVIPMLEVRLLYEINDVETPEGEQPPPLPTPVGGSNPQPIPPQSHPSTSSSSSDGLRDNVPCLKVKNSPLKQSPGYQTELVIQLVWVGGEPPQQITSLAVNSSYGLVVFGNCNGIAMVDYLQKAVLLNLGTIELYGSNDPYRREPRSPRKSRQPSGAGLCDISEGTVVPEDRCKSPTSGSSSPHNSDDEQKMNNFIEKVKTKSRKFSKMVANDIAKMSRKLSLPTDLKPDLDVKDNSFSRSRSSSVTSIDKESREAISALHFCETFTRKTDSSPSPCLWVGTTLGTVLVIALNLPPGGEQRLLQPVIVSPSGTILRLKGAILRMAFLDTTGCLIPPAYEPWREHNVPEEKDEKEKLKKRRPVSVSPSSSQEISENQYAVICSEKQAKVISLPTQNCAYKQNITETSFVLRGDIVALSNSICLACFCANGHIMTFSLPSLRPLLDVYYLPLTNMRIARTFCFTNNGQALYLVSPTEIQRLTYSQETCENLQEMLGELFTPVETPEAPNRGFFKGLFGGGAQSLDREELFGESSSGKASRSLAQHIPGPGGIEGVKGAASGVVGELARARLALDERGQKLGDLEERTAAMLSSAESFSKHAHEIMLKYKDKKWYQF
UniProt Q5RI15: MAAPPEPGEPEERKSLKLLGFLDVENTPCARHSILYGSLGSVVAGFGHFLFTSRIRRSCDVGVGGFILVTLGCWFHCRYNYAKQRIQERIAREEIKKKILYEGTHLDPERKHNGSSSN
UniProt Q53EZ4: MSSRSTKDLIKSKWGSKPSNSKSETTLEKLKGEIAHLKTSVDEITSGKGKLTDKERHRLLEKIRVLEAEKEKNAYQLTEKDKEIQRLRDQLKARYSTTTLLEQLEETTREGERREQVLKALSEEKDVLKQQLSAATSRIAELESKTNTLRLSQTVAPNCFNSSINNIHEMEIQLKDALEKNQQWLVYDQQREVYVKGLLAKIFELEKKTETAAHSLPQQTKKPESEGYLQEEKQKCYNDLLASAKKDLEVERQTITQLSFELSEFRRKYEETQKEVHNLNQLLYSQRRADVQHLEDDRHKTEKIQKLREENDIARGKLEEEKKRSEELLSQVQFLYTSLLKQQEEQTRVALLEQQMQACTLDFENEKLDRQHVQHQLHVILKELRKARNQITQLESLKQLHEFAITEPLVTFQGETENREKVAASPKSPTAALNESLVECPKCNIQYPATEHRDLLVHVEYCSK
UniProt Q3SXM5: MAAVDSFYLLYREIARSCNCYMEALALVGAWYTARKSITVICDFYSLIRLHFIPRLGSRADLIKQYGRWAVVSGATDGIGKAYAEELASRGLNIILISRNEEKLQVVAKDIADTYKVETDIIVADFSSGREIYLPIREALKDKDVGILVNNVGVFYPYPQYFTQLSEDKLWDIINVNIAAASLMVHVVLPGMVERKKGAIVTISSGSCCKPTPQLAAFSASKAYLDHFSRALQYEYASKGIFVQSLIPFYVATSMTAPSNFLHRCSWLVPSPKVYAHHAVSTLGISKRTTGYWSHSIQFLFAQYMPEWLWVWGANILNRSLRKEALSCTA
UniProt Q15424: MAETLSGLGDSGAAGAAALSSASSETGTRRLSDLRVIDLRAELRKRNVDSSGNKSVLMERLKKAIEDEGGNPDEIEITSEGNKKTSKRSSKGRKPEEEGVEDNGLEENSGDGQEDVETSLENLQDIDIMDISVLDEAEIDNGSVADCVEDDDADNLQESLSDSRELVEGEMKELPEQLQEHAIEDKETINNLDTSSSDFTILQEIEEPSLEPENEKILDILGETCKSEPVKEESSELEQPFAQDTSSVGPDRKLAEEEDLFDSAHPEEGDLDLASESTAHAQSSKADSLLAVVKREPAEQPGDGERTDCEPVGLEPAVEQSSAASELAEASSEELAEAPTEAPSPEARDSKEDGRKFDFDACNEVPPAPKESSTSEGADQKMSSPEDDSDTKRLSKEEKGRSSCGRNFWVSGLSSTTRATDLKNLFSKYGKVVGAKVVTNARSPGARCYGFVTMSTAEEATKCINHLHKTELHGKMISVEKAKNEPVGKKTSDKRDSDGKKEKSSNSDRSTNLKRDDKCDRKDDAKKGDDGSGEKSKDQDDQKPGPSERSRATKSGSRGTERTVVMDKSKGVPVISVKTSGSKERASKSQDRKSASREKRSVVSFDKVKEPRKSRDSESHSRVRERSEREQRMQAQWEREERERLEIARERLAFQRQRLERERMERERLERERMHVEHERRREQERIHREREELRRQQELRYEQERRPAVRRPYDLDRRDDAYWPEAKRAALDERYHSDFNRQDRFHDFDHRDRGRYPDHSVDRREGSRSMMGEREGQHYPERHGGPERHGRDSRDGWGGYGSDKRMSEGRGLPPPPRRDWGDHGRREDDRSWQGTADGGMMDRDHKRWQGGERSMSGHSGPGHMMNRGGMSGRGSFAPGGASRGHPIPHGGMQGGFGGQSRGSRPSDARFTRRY

Compound in the assay: Nc1ncnc2c1ncn2[C@@H]1O[C@H](COP(=O)(O)OP(=O)(O)NP(=O)(O)O)[C@@H](O)[C@H]1O [adenylyl imidodiphosphate]
Briefly: NP40-soluble protein abundance relative to vehicle (solubility fold change) (ratio); higher = more soluble protein in presence of AMP-PNP. A digest of the protocol: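 Crude Jurkat lysate, prepared by Dounce homogenisation, was exposed to eight concentrations from 0.1 to 10 mM for 10 min at room temperature and then 3 min at 37 °C. Solubilisation used 0.8% NP40 with benzonase for 60 min at 4 °C, followed by ultracentrifugation and TMT labelling of the supernatant for LC-MS/MS. After vsn normalisation of intensities, each value is the fold change against the detergent-processed vehicle within each replicate, across three independent experiments.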

± gives the standard deviation of the averaged measurements. Only a part is listed here, and it is no random draw.

Turning to ETFDH (UniProt Q16134), the NP40-soluble protein abundance (concentration: 1mM) amounted to 1.01 ± 0.015; the NP40-soluble protein abundance (concentration: 2mM) amounted to 0.967 ± 0.043; the NP40-soluble protein abundance (concentration: 4mM) is 1 ± 0.028; the NP40-soluble protein abundance (concentration: 6mM) came out at 0.978 ± 0.039; the NP40-soluble protein abundance (concentration: 8mM) worked out at 0.989 ± 0.026; the NP40-soluble protein abundance (concentration: 10mM) was 0.969 ± 0.05.

Regarding MANEA (UniProt Q5SRI9), the NP40-soluble protein abundance came out at 0.978 ± 0.034 (concentration: 1mM); 0.9613 ± 0.0022 (concentration: 2mM); 0.949 ± 0.022 (concentration: 4mM); 0.964 ± 0.02 (concentration: 6mM); 0.942 ± 0.039 (concentration: 8mM); 0.945 ± 0.027 (concentration: 10mM).

On to NDUFA9 (UniProt Q16795), for which the NP40-soluble protein abundance is, setting by setting: (concentration: 1mM) 0.936 ± 0.015; (concentration: 2mM) 0.876 ± 0.1; (concentration: 4mM) 0.908 ± 0.069; (concentration: 6mM) 0.911 ± 0.091; (concentration: 8mM) 0.93 ± 0.097; (concentration: 10mM) 0.884 ± 0.15.

For the target UniProt Q5T0N5-4, the NP40-soluble protein abundance by setting is: (concentration: 1mM) 1.02 ± 0.03; (concentration: 2mM) 1.04 ± 0.027; (concentration: 4mM) 1.007 ± 0.0026; (concentration: 6mM) 0.994 ± 0.019; (concentration: 8mM) 0.959 ± 0.0097; (concentration: 10mM) 0.997 ± 0.036.

In the case of PDS5A (UniProt Q29RF7), the NP40-soluble protein abundance reads like this: (concentration: 1mM) 1.005 ± 0.01; (concentration: 2mM) 0.9981 ± 0.0058; (concentration: 4mM) 0.998 ± 0.012; (concentration: 6mM) 0.99111 ± 0.00078; (concentration: 8mM) 0.979 ± 0.022; (concentration: 10mM) 0.98 ± 0.016.

On to UniProt Q15542 and related entries, for which the NP40-soluble protein abundance came to 1.02 ± 0.015 (concentration: 1mM); 0.988 ± 0.035 (concentration: 2mM); 1.04 ± 0.048 (concentration: 4mM); 1.06 ± 0.06 (concentration: 6mM); 1.06 ± 0.032 (concentration: 8mM); 1.09 ± 0.052 (concentration: 10mM).

For UniProt Q2PPJ7 and related entries, the NP40-soluble protein abundance (concentration: 1mM) was 1.02 ± 0.038; the NP40-soluble protein abundance (concentration: 2mM) amounted to 1.16 ± 0.18; the NP40-soluble protein abundance (concentration: 4mM) amounted to 1.03 ± 0.05; the NP40-soluble protein abundance (concentration: 6mM) turned out to be 0.958 ± 0.045; the NP40-soluble protein abundance (concentration: 8mM) was 0.948 ± 0.053; the NP40-soluble protein abundance (concentration: 10mM) worked out at 1.02 ± 0.12.

Take UniProt Q5T5C0 and related entries: the NP40-soluble protein abundance (concentration: 1mM) came out at 1.014 ± 0.0016; the NP40-soluble protein abundance (concentration: 2mM) stood at 1.01 ± 0.062; the NP40-soluble protein abundance (concentration: 4mM) is 0.995 ± 0.011; the NP40-soluble protein abundance (concentration: 6mM) was determined as 1.01 ± 0.024; the NP40-soluble protein abundance (concentration: 8mM) was found to be 0.971 ± 0.024; the NP40-soluble protein abundance (concentration: 10mM) is 1 ± 0.015.

For the target UniProt Q5RI15 and related entries, the NP40-soluble protein abundance (concentration: 1mM) was 1.12 ± 0.073; the NP40-soluble protein abundance (concentration: 2mM) turned out to be 1.13 ± 0.1; the NP40-soluble protein abundance (concentration: 4mM) stood at 1.05 ± 0.034; the NP40-soluble protein abundance (concentration: 6mM) was 1.1 ± 0.044; the NP40-soluble protein abundance (concentration: 8mM) amounted to 1.05 ± 0.049; the NP40-soluble protein abundance (concentration: 10mM) stood at 1.11 ± 0.04.

On to UniProt Q15149 and related entries, for which the NP40-soluble protein abundance runs as follows: (concentration: 1mM) 1.04 ± 0.018; (concentration: 2mM) 1.04 ± 0.033; (concentration: 4mM) 1.05 ± 0.028; (concentration: 6mM) 0.99 ± 0.011; (concentration: 8mM) 0.954 ± 0.06; (concentration: 10mM) 0.972 ± 0.046.

For the target HECTD3 (UniProt Q5T447), the NP40-soluble protein abundance (concentration: 1mM) stood at 0.969 ± 0.039; the NP40-soluble protein abundance (concentration: 2mM) was 0.934 ± 0.072; the NP40-soluble protein abundance (concentration: 4mM) was 0.962 ± 0.079; the NP40-soluble protein abundance (concentration: 6mM) is 0.905 ± 0.068; the NP40-soluble protein abundance (concentration: 8mM) is 0.919 ± 0.064; the NP40-soluble protein abundance (concentration: 10mM) is 0.915 ± 0.1.

For the target TRMT5 (UniProt Q32P41), the NP40-soluble protein abundance is 0.928 ± 0.014 (concentration: 1mM); 0.857 ± 0.063 (concentration: 2mM); 0.894 ± 0.046 (concentration: 4mM); 0.9421 ± 0.0066 (concentration: 6mM); 0.935 ± 0.029 (concentration: 8mM); 0.891 ± 0.044 (concentration: 10mM).

Regarding CEP55 (UniProt Q53EZ4), the NP40-soluble protein abundance (concentration: 1mM) was determined as 0.992 ± 0.031; the NP40-soluble protein abundance (concentration: 2mM) is 1.03 ± 0.042; the NP40-soluble protein abundance (concentration: 4mM) turned out to be 0.992 ± 0.031; the NP40-soluble protein abundance (concentration: 6mM) turned out to be 0.968 ± 0.018; the NP40-soluble protein abundance (concentration: 8mM) is 0.926 ± 0.038; the NP40-soluble protein abundance (concentration: 10mM) worked out at 0.935 ± 0.043.

Regarding HSDL1 (UniProt Q3SXM5), the NP40-soluble protein abundance reads like this: (concentration: 1mM) 0.911 ± 0.053; (concentration: 2mM) 0.85 ± 0.04; (concentration: 4mM) 0.925 ± 0.034; (concentration: 6mM) 0.912 ± 0.047; (concentration: 8mM) 0.951 ± 0.028; (concentration: 10mM) 0.856 ± 0.031.

For UniProt Q15424 and related entries, the NP40-soluble protein abundance by setting is: (concentration: 1mM) 1.09 ± 0.08; (concentration: 2mM) 1.17 ± 0.054; (concentration: 4mM) 1.16 ± 0.097; (concentration: 6mM) 1.23 ± 0.12; (concentration: 8mM) 1.24 ± 0.084; (concentration: 10mM) 1.3 ± 0.1.
